The supplement of paper PMC4749390
Counter-ions that a name gives are not always drawn. Some of the results follow. Repeats in this data set agree poorly, so a single value says little.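 JEG3 cells stably carry tetracycline-induced wild-type human LRH-1, a heavily sumoylated nuclear receptor. APOC3 and MUC1 are SUMO-sensitive transcripts, raised by SUMO-less LRH-1 or UBC9 knockdown, measured by RT-qPCR against TBP and DMSO controls. A robust Z-score above +2 or below -2 marked a primary hit before toxicity and TBP filtering.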

System: JEG3 expressing hLRH-1
Assay: MUC1 transcript change (ddCt vs TBP and DMSO), Z-score over library; higher = higher MUC1 expression
Details: 10 µM; time (hr): 24

| SMILES | MUC1 transcript change (Z-score) |
| --- | --- |
| OC[C@@H](O)[C@@H](O)[C@H](O)[C@@H](O)CO [mannitol] | 0.495 |
| CCCCC(=O)O[C@]1(C(=O)CO)[C@@H](C)C[C@H]2[C@@H]3CCC4=CC(=O)C=C[C@]4(C)[C@@]3(F)[C@@H](O)C[C@@]21C [betamethasone valerate] | 0.0898 |
| C[N+]1(C)CCC(OC(=O)C(O)(c2ccccc2)C2CCCC2)C1 (stereo unspecified) [glycopyrrolate] | 1.27 |
| CC(=O)OCC(=O)[C@@]1(O)CC[C@H]2[C@@H]3CCC4=CC(=O)C=C[C@]4(C)[C@@]3(F)[C@@H](O)C[C@@]21C [isoflupredone acetate] | -0.622 |
| Oc1ccc(O)cc1 [hydroquinone] | -0.645 |
| CCn1cc(C(=O)O)c(=O)c2cnc(N3CCNCC3)nc21 [pipemidic acid] | -0.0487 |
| O=C(O)c1cc(=O)c2c(OCC(O)COc3cccc4oc(C(=O)O)cc(=O)c34)cccc2o1 [cromolyn sodium] | -0.972 |
| NCC1CCCCC1CC(=O)O (stereo unspecified) [gabapentin] | 0.598 |
| CC(=O)N[C@@H](CC(C)C)C(=O)O [acetyl-l-leucine] | -0.706 |
| O=C1c2ccccc2C(=O)C1c1ccc(Br)cc1 [bromindione] | 1.25 |
| CN(Cc1cc(Br)cc(Br)c1N)C1CCCCC1 [bromhexine hydrochloride] | 0.341 |
| CC(O)Cn1cnc2c1c(=O)n(C)c(=O)n2C (stereo unspecified) [proxyphylline] | 0.396 |
| COc1ccc2c(c1)c(CC(=O)OCC(=O)O)c(C)n2C(=O)c1ccc(Cl)cc1 [acemetacin] | -0.19 |
| Nc1ccc(C(=O)Oc2ccccc2)c(O)c1 [fenamisal] | -0.0285 |
| O=c1oc2c(O)c(O)cc3c(=O)oc4c(O)c(O)cc1c4c23 [ellagic acid] | 0.517 |
| Nc1ncnc2c1ncn2[C@@H]1O[C@H](COP(=O)(O)O)[C@@H](O)[C@H]1O [adenosine phosphate] | 0.61 |
| NC(=O)N/N=C/c1ccc([N+](=O)[O-])o1 [nitrofurazone] | 0.481 |
| CCCc1nc(C)c2c(O)nc(-c3cc(S(=O)(=O)N4CCN(CC)CC4)ccc3OCC)nn12 [vardenafil hydrochloride] | -0.699 |
| C=C1c2c(Cl)ccc(O)c2C(O)=C2C(=O)[C@]3(O)C(O)=C(C(N)=O)C(=O)[C@@H](N(C)C)[C@@H]3[C@@H](O)[C@H]12 [meclocycline sulfosalicylate] | 0.596 |
| CC(=O)Nc1ccc(S(=O)(=O)Nc2onc(C)c2C)cc1 [sulfisoxazole acetyl] | -0.313 |
| Cc1cc(C(C)(C)C)c(O)c(C(C)(C)C)c1 [2,6-di-t-butyl-4-methylphenol] | -0.146 |

Single values from the list.
Value for CCCc1nc(C)c2c(O)nc(-c3cc(S(=O)(=O)N4CCN(CC)CC4)ccc3OCC)nn12 [vardenafil hydrochloride] under MUC1 transcript change (Z-score): -0.699
Value for CC(O)Cn1cnc2c1c(=O)n(C)c(=O)n2C (stereo unspecified) [proxyphylline] under MUC1 transcript change (Z-score): 0.396
